{
  "source": "PubChem BioAssay AID540276",
  "about": "(National Center for Advancing Translational Sciences (NCATS), 2011)",
  "note": "Several values for one entry are separate records, joined by “and”; a condition that tells them apart may be missing. Equal values may be shown once. Hit rate of the full screen: of about 300,000 compounds, about 5,400 (1.8%) were called active. Inconclusive results, whose numbers are uncertain, are shown with a selection of clear calls. Calls follow the shape of the full dose curve; tested in HEK293 cells. Potencies beside an inconclusive call are fits to weak or partial responses and may not hold up. Potency is read from the fitted curve at half-maximal effect.",
  "data": [
    {"test": "qHTS for inhibitors of binding or entry into cells for Marburg Virus", "settings": "Marburg virus pseudotyped entry inhibition, cell reporter; series mostly up to 37.8 µM", "values": [
      {"smiles": "Cc1ccc(-c2noc(C3CCCN(C(=O)c4c(F)cccc4F)C3)n2)cc1", "note": "(configuration not stated)", "Potency": "inactive"},
      {"smiles": "Oc1ccc(-c2onc(C(F)(F)F)c2-c2cscn2)c(O)c1", "Potency": "inconclusive: 8.91 µM [inhibitor, partial curve, poor fit]"},
      {"smiles": "COCCOC(=O)C1=C(C)OC(N)=C(C#N)C1c1cc2cccc(C)c2nc1Cl", "note": "(configuration not stated)", "Potency": "inconclusive: 0.355 µM [inhibitor, full curve, poor fit]"},
      {"smiles": "COCC(C)NS(=O)(=O)c1ccc(C)cc1", "note": "(configuration not stated)", "Potency": "inactive"},
      {"smiles": "O=C(N/N=C/C(Br)=C/c1ccccc1)C(O)c1ccccc1", "note": "(configuration not stated)", "Potency": "inconclusive: 11.2 µM [inhibitor, partial curve, poor fit]"},
      {"smiles": "CCOC(=O)N1CCC(N(CCN(C)C)C(=S)Nc2cccc(OC)c2)CC1", "Potency": "inactive"},
      {"smiles": "CCO[C@H](c1cc(OC)cc([N+](=O)[O-])c1OC)[C@H](C)C=CCC(=O)OC", "Potency": "inactive"},
      {"smiles": "CC(/C=N/NC(=O)c1cc(-c2ccccc2)nc2ccccc12)=C\\c1ccco1", "Potency": "inconclusive: 35.5 µM [inhibitor, partial curve, poor fit]"},
      {"smiles": "CCCCNC1=CC(=O)C(NCCCC)=CC1=O", "Potency": "inconclusive: 35.5 µM [inhibitor, single point]"},
      {"smiles": "CC(C)C1N(S(=O)(=O)c2ccccc2)CCN1S(=O)(=O)c1ccccc1", "Potency": "inactive"},
      {"smiles": "O=C(NCc1ccc2c(c1)OCO2)c1ccc(CSCc2ccccc2Cl)o1", "Potency": "inactive"},
      {"smiles": "Fc1cccc(Cl)c1/C=N/Nc1c(Cl)cncc1Cl", "Potency": "inconclusive: 35.5 µM [inhibitor, single point]"},
      {"smiles": "COc1ccccc1C(=O)NNC(=O)C(=O)NCc1ccccc1", "Potency": "inconclusive: 3.98 µM [activator, single point]"},
      {"smiles": "O=C(Nc1cc(S(=O)(=O)N2CCCCCC2)ccc1OCC(F)(F)F)c1cnccn1", "Potency": "inactive"},
      {"smiles": "COC1C(O)C(C)OC(OC2C(Oc3cccc4c(O)c5c(=O)oc6ccc(C)c7c(=O)oc(c34)c5c67)OC(C)C(O)C2O)C1O", "note": "(configuration not stated)", "Potency": "inconclusive: 4.47 µM [inhibitor, full curve, poor fit]"},
      {"smiles": "Cc1cccc(C)c1NC(=O)CCS(=O)(=O)c1ccc(Br)cc1", "Potency": "inconclusive: 0.501 µM [inhibitor, full curve, poor fit]"},
      {"smiles": "COc1ccc(/C=N\\NC(=O)c2ccccc2OC)cc1COc1c(F)c(F)c(F)c(F)c1F", "Potency": "inconclusive: 1.26 µM [inhibitor, single point]"},
      {"smiles": "CC1CN(C(=O)c2cccc(COc3ccc(Br)cc3)c2)CC(C)O1", "note": "(configuration not stated)", "Potency": "inconclusive: 0.82 µM [activator, partial curve, poor fit]"},
      {"smiles": "O=C(C1CCN(Cc2ccccc2)CC1)N1CCN(C/C=C/c2ccccc2)CC1", "Potency": "active: 14.1 µM"},
      {"smiles": "O=C1N=C(N2CCOCC2)SC1=Cc1ccco1", "Potency": "inactive"},
      {"smiles": "COc1cc(O)c2c(c1)COC2=O", "Potency": "inconclusive: 0.0046 µM [inhibitor, full curve, poor fit]"},
      {"smiles": "O=C(NC1(C(F)(F)F)N=C(c2ccccc2)N(C2CCCCC2)C1=O)c1ccc(F)cc1", "note": "(configuration not stated)", "Potency": "inconclusive: 10 µM [inhibitor, partial curve]"},
      {"smiles": "O=C(Nc1cccnc1)OCc1ccccc1", "Potency": "inactive"},
      {"smiles": "O=C(N/C(=C/c1ccco1)C(=O)N1CCCCCC1)c1cccs1", "Potency": "inactive"},
      {"smiles": "CCOc1ccc(NC(=S)NCc2ccc3c(c2)OCO3)cc1", "Potency": "inactive"},
      {"smiles": "COC(=O)NC(NC(=S)Nc1ccc([N+](=O)[O-])cc1)C(Cl)(Cl)Cl", "note": "(configuration not stated)", "Potency": "inconclusive: 1.78 µM [inhibitor, full curve, poor fit]"},
      {"smiles": "O=S1(=O)CC2(N3CCOCC3)CCCCC21", "note": "(configuration not stated)", "Potency": "inactive"},
      {"smiles": "COc1ccc(S(=O)(=O)N2CCOC23CCN(C(=O)c2ccccc2OC)CC3)cc1", "Potency": "inactive"},
      {"smiles": "Cc1ccc(Cl)c(OCC(=O)Nc2cc(S(=O)(=O)N3CCOCC3)ccc2N2CCCC2)c1", "Potency": "inconclusive: 35.5 µM [inhibitor, single point]"},
      {"smiles": "CCn1c(SCC(=O)NC2CC2)nnc1-c1cccc(OC)c1", "Potency": "inconclusive: 15.8 µM [activator, single point]"},
      {"smiles": "CCCN(CC(=O)Nc1ccc(F)c(F)c1F)CC(=O)Nc1c(Cl)cccc1Cl", "Potency": "inconclusive: 35.5 µM [inhibitor, single point]"},
      {"smiles": "CC(C)Oc1ccc(NC(=O)c2ccncc2)cc1", "Potency": "inactive"},
      {"smiles": "CC(=O)N1CCN(S(=O)(=O)c2ccc(S(=O)(=O)NC3CC3)cc2)CC1", "Potency": "inactive"},
      {"smiles": "COc1ccc(N(CC(=O)Nc2ccc(C)cc2C)S(=O)(=O)c2ccccc2[N+](=O)[O-])c(OC)c1", "Potency": "inconclusive: 4.47 µM [inhibitor, single point]"},
      {"smiles": "COc1ccc(/C=N/N2C(C)CCCC2C)cc1O", "note": "(configuration not stated)", "Potency": "inconclusive: 1.26 µM [inhibitor, single point]"},
      {"smiles": "COc1cc2[nH]c(=S)nc(NCc3ccccc3)c2cc1OC", "Potency": "inactive"},
      {"smiles": "Cc1ccc(S(=O)(=O)N2CCC(C(=O)OC(C)C(=O)NCc3ccc4c(c3)OCO4)CC2)cc1", "note": "(configuration not stated)", "Potency": "inactive"},
      {"smiles": "C=CCn1c(CCNC(=O)c2ccco2)nc2ccccc21", "Potency": "inconclusive: 1.12 µM [inhibitor, full curve, poor fit]"},
      {"smiles": "COc1ccc(-c2nc(SCC(=O)c3ccc(Br)cc3)n[nH]2)cc1", "Potency": "inactive"},
      {"smiles": "COc1cccc(C(=O)NNC(=O)c2ccc3ccccc3c2)c1", "Potency": "inactive"},
      {"smiles": "CCCc1cc(=O)oc2c(CN3CCN(C)CC3)c(O)c(Cl)cc12", "Potency": "inactive"},
      {"smiles": "C/C(=N\\NC(=O)c1nnn(-c2nonc2N)c1-c1ccc2c(c1)OCO2)c1ccccc1", "Potency": "inconclusive: 35.5 µM [inhibitor, single point]"},
      {"smiles": "CC1Cc2nc(SCC(=O)Nc3ccc(F)cc3F)n(C)c(=O)c2S1", "note": "(configuration not stated)", "Potency": "inactive and inconclusive: 2.59 µM [inhibitor, partial curve, poor fit]"},
      {"smiles": "Cc1ccccc1C(=O)Oc1ccc(-c2csnn2)cc1", "Potency": "inactive"},
      {"smiles": "Nc1nc(-c2ccccc2)c(CCCOc2ccc(NC(=O)CBr)cc2)c(=O)[nH]1", "Potency": "inactive"},
      {"smiles": "COc1ccc(S(=O)(=O)N(CC(=O)Nc2ccc(OC)cc2OC)c2ccc(Cl)cc2)cc1", "Potency": "inconclusive: 22.4 µM [inhibitor, single point]"},
      {"smiles": "COc1cc(NC(=O)C2CCN(S(=O)(=O)c3c(C)noc3/C=C/c3cccs3)CC2)cc(OC)c1", "Potency": "inactive"}
    ]}
  ]
}
